Test [1] has as its target Giardia lamblia clathrin heavy chain (Giardia lamblia WBC6 (ATCC 50803)) (UniProt A8B515). In words: affinity purification with mass spectrometry; co-IP with limited cross-linking: 10^9 trophozoites in 0.4mM DSP in PBS, 30 minutes at RT, quenched with glycine, sonicated; soluble fraction with 1% TX-100 on anti-HA agarose beads 2h at 4°C; cross-links reversed with DTT; SDS-PAGE, LC-MS/MS; HA-tagged baits (GlCHC and 8 reverse baits); non-transgenic WB parasites as control.

Protein sequences, listed by entry. Tags and fused reporters are not part of them. Lines headed by an entry give the natural chain unless they say otherwise; changes in a name come on top.
UniProt A8B515: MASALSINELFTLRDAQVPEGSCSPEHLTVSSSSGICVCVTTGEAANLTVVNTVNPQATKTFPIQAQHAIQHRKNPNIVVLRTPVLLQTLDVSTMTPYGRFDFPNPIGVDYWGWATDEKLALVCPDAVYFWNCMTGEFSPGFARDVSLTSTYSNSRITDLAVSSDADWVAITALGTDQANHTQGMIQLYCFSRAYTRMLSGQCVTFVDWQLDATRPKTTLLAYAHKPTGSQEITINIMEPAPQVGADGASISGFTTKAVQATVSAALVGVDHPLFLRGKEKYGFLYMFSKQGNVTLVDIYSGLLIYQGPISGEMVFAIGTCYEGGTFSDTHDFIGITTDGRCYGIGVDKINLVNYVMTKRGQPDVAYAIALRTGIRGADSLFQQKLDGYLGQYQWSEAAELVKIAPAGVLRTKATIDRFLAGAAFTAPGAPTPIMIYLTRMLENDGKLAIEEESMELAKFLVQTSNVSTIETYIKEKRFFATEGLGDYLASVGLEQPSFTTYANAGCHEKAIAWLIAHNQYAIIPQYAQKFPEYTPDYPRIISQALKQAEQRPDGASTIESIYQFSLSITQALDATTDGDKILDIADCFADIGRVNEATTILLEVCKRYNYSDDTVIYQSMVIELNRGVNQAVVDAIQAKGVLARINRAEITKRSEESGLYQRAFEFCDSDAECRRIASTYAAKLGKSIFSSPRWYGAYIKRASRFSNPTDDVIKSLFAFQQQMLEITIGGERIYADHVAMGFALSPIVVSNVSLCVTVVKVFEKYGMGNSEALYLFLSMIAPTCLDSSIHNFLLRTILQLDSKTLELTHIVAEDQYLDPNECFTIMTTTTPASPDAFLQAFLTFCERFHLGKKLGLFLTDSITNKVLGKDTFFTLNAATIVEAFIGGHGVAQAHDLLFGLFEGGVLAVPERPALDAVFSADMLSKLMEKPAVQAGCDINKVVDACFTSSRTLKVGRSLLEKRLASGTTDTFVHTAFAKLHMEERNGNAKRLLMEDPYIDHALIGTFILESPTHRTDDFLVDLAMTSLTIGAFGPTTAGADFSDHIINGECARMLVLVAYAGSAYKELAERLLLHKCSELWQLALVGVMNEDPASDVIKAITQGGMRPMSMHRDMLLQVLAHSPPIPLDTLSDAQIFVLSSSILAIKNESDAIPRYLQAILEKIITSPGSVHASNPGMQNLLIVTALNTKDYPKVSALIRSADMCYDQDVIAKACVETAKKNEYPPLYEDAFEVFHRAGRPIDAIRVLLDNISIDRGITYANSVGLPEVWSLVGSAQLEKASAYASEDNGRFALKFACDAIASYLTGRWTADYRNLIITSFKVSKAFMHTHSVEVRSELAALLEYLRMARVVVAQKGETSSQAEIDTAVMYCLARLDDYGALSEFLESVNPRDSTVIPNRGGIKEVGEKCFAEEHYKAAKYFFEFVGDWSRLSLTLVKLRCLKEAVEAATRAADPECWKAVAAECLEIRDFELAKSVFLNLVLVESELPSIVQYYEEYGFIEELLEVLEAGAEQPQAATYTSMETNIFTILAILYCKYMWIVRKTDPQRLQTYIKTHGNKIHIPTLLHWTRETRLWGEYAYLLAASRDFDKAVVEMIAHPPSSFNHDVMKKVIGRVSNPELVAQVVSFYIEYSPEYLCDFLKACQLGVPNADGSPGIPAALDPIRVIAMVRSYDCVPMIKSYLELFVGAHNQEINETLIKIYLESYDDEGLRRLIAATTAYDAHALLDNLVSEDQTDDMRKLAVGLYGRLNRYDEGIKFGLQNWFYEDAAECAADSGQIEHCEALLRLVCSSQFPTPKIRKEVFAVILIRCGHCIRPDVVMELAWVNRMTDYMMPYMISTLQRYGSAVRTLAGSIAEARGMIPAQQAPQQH
UniProt A8BHA7: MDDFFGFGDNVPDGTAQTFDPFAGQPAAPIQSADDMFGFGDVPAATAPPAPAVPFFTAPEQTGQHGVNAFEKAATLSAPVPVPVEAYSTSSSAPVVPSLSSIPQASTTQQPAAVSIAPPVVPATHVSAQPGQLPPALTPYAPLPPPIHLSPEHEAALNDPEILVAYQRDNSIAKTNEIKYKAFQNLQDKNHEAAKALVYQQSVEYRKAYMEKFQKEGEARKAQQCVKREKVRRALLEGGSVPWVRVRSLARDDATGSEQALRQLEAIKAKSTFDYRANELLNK
UniProt A8BH24: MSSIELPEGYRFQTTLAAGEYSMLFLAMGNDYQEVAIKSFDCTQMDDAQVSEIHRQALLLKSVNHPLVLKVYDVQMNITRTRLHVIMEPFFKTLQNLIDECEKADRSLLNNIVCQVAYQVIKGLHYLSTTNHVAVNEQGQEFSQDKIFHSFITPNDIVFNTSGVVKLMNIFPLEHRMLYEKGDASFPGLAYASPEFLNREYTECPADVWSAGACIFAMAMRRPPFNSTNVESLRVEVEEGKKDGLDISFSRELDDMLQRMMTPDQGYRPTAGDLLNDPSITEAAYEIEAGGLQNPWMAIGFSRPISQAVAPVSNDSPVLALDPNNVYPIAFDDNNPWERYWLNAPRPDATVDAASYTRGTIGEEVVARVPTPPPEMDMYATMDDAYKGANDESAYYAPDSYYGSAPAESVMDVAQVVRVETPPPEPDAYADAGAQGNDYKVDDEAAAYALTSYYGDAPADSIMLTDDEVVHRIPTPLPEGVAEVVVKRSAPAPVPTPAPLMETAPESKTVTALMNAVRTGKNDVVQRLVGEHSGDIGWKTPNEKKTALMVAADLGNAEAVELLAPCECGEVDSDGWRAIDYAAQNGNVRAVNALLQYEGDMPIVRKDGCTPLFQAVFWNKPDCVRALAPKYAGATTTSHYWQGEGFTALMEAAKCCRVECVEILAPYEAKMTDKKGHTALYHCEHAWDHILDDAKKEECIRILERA
UniProt A8B343: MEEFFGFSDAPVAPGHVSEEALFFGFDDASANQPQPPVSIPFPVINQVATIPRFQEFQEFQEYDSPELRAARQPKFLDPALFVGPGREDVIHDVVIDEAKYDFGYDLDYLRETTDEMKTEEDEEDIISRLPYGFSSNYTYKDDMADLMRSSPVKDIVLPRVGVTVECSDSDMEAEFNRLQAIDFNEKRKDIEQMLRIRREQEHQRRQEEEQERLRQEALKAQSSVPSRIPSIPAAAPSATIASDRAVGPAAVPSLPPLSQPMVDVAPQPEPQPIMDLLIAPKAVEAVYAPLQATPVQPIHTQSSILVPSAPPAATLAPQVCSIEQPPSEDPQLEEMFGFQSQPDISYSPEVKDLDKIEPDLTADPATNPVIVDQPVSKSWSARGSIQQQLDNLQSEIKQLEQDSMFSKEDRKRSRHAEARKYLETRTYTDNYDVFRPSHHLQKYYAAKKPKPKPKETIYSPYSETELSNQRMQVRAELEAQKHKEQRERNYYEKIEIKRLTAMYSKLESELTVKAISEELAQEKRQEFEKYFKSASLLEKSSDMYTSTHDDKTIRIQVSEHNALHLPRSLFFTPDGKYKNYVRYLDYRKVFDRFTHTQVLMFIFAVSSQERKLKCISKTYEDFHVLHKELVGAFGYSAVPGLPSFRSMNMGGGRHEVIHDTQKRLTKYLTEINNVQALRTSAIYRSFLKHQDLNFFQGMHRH
UniProt E2RU04: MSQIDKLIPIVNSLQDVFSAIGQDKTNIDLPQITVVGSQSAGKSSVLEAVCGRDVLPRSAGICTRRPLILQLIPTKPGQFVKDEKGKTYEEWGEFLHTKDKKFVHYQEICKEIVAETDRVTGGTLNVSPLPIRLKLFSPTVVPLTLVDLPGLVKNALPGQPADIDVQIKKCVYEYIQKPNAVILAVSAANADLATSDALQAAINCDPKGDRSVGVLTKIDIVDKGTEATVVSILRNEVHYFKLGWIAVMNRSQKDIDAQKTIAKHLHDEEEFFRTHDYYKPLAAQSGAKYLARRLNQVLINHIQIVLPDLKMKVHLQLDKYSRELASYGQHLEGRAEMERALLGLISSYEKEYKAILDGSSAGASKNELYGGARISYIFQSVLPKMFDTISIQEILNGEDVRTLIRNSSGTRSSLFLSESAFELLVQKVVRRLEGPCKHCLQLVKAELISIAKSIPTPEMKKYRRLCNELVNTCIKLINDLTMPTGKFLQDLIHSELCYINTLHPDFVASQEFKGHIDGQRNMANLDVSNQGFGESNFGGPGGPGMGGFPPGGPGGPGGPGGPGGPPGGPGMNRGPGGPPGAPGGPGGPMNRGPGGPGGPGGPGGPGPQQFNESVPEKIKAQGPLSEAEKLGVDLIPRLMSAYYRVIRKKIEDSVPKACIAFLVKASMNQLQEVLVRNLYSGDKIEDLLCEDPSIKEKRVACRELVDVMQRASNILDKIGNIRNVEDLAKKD
UniProt A8B9U8: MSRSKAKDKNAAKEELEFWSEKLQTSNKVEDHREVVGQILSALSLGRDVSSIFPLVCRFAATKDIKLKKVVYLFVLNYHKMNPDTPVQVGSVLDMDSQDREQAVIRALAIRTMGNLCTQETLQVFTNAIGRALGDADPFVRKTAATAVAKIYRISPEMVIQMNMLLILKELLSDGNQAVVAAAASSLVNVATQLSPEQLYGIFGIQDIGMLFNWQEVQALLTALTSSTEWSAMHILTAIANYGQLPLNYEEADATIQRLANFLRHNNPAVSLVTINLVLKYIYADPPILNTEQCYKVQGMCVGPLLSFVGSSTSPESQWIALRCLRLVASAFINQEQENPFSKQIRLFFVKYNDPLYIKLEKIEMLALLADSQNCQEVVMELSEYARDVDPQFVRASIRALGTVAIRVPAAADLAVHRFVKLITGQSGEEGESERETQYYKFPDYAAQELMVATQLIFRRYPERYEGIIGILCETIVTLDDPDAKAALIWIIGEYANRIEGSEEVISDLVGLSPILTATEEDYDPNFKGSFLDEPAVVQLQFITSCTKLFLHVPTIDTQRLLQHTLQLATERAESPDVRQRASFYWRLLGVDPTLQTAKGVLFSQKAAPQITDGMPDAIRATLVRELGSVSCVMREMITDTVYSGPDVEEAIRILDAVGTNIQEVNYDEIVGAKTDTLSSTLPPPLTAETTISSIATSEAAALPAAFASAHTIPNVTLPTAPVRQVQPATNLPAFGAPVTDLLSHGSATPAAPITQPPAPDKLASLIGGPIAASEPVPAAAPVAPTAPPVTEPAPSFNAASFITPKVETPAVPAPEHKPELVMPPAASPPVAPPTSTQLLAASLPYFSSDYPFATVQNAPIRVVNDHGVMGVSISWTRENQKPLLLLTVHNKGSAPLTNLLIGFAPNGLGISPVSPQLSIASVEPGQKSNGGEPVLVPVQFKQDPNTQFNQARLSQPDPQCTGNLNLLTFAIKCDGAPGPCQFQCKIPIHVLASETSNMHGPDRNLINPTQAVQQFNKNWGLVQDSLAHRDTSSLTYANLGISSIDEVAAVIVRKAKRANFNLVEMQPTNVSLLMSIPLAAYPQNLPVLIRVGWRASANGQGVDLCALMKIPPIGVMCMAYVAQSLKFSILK
UniProt A8BAR6: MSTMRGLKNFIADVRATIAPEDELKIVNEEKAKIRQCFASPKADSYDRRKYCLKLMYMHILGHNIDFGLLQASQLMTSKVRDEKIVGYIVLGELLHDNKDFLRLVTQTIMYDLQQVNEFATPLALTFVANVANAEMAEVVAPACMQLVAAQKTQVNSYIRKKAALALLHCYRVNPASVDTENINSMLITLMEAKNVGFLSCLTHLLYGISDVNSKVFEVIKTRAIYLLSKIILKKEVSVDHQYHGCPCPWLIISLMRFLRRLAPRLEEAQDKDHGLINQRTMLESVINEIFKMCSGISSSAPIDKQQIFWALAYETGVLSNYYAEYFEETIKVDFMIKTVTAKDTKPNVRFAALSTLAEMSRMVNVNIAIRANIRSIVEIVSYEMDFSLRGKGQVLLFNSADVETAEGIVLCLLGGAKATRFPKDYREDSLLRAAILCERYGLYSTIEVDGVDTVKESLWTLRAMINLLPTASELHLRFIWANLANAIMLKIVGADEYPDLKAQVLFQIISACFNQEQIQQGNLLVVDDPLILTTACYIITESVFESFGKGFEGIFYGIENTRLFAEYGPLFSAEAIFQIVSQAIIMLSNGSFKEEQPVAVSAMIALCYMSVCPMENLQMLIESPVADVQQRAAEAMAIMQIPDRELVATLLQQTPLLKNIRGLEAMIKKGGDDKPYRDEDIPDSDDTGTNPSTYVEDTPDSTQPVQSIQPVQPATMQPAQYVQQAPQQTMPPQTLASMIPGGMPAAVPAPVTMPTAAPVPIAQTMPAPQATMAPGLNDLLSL
UniProt P51775: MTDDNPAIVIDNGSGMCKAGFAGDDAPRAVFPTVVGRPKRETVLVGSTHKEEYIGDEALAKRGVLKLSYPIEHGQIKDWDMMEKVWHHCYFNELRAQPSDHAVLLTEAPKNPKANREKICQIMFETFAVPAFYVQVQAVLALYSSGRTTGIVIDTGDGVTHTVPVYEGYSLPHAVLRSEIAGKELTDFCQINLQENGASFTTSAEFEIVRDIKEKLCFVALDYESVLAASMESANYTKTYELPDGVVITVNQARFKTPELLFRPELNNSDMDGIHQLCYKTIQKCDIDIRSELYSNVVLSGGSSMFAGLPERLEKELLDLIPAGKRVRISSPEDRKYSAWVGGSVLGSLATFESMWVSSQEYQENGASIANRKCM

For test [2] the target is unchanged. In words: affinity purification with mass spectrometry; native co-IP (no cross-linker) with GlCHC-HA as bait from transgenic trophozoites; LC-MS/MS, high stringency parameters; untransfected line as control.
The target in test [3] is Gl4259, putative clathrin light chain (Giardia lamblia WBC6 (ATCC 50803)) (UniProt A8BHA7). In words: affinity purification with mass spectrometry; co-IP with limited cross-linking: 10^9 trophozoites in 0.4mM DSP in PBS, 30 minutes at RT, quenched with glycine, sonicated; soluble fraction with 1% TX-100 on anti-HA agarose beads 2h at 4°C; cross-links reversed with DTT; SDS-PAGE, LC-MS/MS; HA-tagged baits (GlCHC and 8 reverse baits); non-transgenic WB parasites as control.

Test [4] addresses Giardia lamblia clathrin heavy chain (Giardia lamblia WBC6 (ATCC 50803)) (UniProt A8B515). In words: condition: only native co-IP, without DSP cross-linking; affinity purification with mass spectrometry; native co-IP (no cross-linker) with GlCHC-HA as bait from transgenic trophozoites; LC-MS/MS, high stringency parameters; untransfected line as control.
The target in test [5] is Gl15411, predicted metabolically inactive NEK kinase (Giardia lamblia WBC6 (ATCC 50803)) (UniProt A8BH24). In words: affinity purification with mass spectrometry; co-IP with limited cross-linking: 10^9 trophozoites in 0.4mM DSP in PBS, 30 minutes at RT, quenched with glycine, sonicated; soluble fraction with 1% TX-100 on anti-HA agarose beads 2h at 4°C; cross-links reversed with DTT; SDS-PAGE, LC-MS/MS; HA-tagged baits (GlCHC and 8 reverse baits); non-transgenic WB parasites as control.

Test [6] deals with Gl7723, PX domain protein (Giardia lamblia WBC6 (ATCC 50803)) (UniProt A8B343). The test is described as above.
The target of test [7] is Giardia dynamin related protein (Giardia lamblia WBC6 (ATCC 50803)) (UniProt E2RU04). The description is as above.
Test [8] has as its target Gl16595, PX domain protein (Giardia lamblia WBC6 (ATCC 50803)) (UniProt A8B344). The description is as above.
The target in test [9] is Gl16653, FYVE domain protein (Giardia lamblia WBC6 (ATCC 50803)) (UniProt A8BDZ8). The test is described as above.
For test [10], the target named is Giardia lamblia AP2 beta subunit (Giardia lamblia WBC6 (ATCC 50803)) (UniProt A8B9U8). The description is as above.
Test [11] deals with Giardia lamblia AP2 alpha subunit (Giardia lamblia WBC6 (ATCC 50803)) (UniProt A8BAR6). Described as above.

These are yes or no findings as the source states them, for the method shown. In cells and extracts the contact can be indirect. A yes stands for co-enrichment or nearness to the bait. Other partners may have been found. For part of these data: No binding means not detected with the bait.

Regarding actin (from UniProt P51775 1-375), the binding entry in test [1] is “no binding”.
“Gl4259, putative clathrin light chain (from UniProt A8BHA7)”: the binding entry in [2] and in [1] was “binds” in each case.
On to “Giardia dynamin related protein (from UniProt E2RU04)”, for which the binding result is on record as “binds” in test [3], “binds” in test [1] and “no binding” in [4].
“Giardia lamblia AP2 beta subunit (from UniProt A8B9U8)”: the binding result in [5], in test [3], in test [1], in test [6], in test [7] and in test [8] was “binds” each time. The figures for the binding entry in test [9] and in [4] were “binds” and “no binding”, respectively.
On to “Giardia lamblia AP2 alpha subunit (from UniProt A8BAR6)”, for which the binding result in test [5], in test [10], in test [3], in [1], in test [6] and in test [7] was “binds” in each case. In addition, the binding entry in test [8] is given as “binds”; in test [9], “binds”; in [4] it was “no binding”.
For “Gl7723, PX domain protein (from UniProt A8B343)”, the binding result in test [1] is recorded as “binds”.
In the case of “Gl16653, FYVE domain protein (from UniProt A8BDZ8)”, in test [1], the binding result is listed as “binds”.
As to “Giardia lamblia clathrin heavy chain (from UniProt A8B515)”, the binding result in [10], in test [3], in test [6], in [7], in test [11] and in test [8] was “binds” each time. Besides, in [9], the binding entry was “binds”.
Turning to “Gl16595, PX domain protein (from UniProt A8B344)”, the binding entry in test [1] is “binds”.

The record behind these values is article PMC4954726.
